At least one structure is not confirmed: it was looked up by name or label, or the drawing left a doubt.
Key:
[1] = test system: human Toll-like receptor 9 (TLR9); test: TLR9 reporter cell line assay with rapamycin; format: cell-based; details: ceDNA with or without rapamycin
[2] = test system: human monocytes; test: Ex vivo human monocytes with rapamycin, cytokine readout; format: cell-based; details: ceDNA with or without rapamycin
[3] = test system: Factor IX or Factor VIII deficient mice; test: Factor IX/VIII plasma ELISA, LNP-ceDNA co-administered with rapamycin; format: in vivo

SMILES: CO[C@H]1C[C@@H]2CC[C@@H](C)[C@@](O)(O2)C(=O)C(=O)N2CCCC[C@H]2C(=O)O[C@H]([C@H](C)C[C@@H]2CC[C@@H](O)[C@H](OC)C2)CC(=O)[C@H](C)/C=C(\C)[C@@H](O)[C@@H](OC)C(=O)[C@H](C)C[C@H](C)/C=C/C=C/C=C/1C [RAPA, rapamycin]
- STAT3 induction of cytokine IL-10, and other cytokines [1]: diminished
- activation of the reporter molecule [1]: more activation of the reporter molecule
- cytokine pathways and cytokine secretion, e.g. IL-10 and Type I IFN [2]: less activation of cytokine pathways and cytokine secretion
- expression of Factor IX or Factor VIII ([3]; versus ceDNA vector only): increased and/or sustained expression of Factor IX or Factor VIII
- cytokine secretion upon re-dose ([3]; versus re-dose without rapamycin): less activation of cytokine secretion

Reference: patent US20220119840A1, “CLOSED-ENDED DNA (CEDNA) AND USE IN METHODS OF REDUCING GENE OR NUCLEIC ACID THERAPY RELATED IMMUNE RESPONSE” (Generation Bio Co., priority 2019, published 2022)
